Measured values from the supplement of paper PMC12067093, “Discovery and optimisation of a covalent ligand for TRIM25 and its application to targeted protein ubiquitination” (Chemical Science, 2025).
Some of the results follow.

The chains behind the UniProt entries cited, without tags or fusion partners. Where a name states a change or a piece, a line headed by the entry shows the natural chain unless it says otherwise.
UniProt Q6ZRS2, whole entry, looked up: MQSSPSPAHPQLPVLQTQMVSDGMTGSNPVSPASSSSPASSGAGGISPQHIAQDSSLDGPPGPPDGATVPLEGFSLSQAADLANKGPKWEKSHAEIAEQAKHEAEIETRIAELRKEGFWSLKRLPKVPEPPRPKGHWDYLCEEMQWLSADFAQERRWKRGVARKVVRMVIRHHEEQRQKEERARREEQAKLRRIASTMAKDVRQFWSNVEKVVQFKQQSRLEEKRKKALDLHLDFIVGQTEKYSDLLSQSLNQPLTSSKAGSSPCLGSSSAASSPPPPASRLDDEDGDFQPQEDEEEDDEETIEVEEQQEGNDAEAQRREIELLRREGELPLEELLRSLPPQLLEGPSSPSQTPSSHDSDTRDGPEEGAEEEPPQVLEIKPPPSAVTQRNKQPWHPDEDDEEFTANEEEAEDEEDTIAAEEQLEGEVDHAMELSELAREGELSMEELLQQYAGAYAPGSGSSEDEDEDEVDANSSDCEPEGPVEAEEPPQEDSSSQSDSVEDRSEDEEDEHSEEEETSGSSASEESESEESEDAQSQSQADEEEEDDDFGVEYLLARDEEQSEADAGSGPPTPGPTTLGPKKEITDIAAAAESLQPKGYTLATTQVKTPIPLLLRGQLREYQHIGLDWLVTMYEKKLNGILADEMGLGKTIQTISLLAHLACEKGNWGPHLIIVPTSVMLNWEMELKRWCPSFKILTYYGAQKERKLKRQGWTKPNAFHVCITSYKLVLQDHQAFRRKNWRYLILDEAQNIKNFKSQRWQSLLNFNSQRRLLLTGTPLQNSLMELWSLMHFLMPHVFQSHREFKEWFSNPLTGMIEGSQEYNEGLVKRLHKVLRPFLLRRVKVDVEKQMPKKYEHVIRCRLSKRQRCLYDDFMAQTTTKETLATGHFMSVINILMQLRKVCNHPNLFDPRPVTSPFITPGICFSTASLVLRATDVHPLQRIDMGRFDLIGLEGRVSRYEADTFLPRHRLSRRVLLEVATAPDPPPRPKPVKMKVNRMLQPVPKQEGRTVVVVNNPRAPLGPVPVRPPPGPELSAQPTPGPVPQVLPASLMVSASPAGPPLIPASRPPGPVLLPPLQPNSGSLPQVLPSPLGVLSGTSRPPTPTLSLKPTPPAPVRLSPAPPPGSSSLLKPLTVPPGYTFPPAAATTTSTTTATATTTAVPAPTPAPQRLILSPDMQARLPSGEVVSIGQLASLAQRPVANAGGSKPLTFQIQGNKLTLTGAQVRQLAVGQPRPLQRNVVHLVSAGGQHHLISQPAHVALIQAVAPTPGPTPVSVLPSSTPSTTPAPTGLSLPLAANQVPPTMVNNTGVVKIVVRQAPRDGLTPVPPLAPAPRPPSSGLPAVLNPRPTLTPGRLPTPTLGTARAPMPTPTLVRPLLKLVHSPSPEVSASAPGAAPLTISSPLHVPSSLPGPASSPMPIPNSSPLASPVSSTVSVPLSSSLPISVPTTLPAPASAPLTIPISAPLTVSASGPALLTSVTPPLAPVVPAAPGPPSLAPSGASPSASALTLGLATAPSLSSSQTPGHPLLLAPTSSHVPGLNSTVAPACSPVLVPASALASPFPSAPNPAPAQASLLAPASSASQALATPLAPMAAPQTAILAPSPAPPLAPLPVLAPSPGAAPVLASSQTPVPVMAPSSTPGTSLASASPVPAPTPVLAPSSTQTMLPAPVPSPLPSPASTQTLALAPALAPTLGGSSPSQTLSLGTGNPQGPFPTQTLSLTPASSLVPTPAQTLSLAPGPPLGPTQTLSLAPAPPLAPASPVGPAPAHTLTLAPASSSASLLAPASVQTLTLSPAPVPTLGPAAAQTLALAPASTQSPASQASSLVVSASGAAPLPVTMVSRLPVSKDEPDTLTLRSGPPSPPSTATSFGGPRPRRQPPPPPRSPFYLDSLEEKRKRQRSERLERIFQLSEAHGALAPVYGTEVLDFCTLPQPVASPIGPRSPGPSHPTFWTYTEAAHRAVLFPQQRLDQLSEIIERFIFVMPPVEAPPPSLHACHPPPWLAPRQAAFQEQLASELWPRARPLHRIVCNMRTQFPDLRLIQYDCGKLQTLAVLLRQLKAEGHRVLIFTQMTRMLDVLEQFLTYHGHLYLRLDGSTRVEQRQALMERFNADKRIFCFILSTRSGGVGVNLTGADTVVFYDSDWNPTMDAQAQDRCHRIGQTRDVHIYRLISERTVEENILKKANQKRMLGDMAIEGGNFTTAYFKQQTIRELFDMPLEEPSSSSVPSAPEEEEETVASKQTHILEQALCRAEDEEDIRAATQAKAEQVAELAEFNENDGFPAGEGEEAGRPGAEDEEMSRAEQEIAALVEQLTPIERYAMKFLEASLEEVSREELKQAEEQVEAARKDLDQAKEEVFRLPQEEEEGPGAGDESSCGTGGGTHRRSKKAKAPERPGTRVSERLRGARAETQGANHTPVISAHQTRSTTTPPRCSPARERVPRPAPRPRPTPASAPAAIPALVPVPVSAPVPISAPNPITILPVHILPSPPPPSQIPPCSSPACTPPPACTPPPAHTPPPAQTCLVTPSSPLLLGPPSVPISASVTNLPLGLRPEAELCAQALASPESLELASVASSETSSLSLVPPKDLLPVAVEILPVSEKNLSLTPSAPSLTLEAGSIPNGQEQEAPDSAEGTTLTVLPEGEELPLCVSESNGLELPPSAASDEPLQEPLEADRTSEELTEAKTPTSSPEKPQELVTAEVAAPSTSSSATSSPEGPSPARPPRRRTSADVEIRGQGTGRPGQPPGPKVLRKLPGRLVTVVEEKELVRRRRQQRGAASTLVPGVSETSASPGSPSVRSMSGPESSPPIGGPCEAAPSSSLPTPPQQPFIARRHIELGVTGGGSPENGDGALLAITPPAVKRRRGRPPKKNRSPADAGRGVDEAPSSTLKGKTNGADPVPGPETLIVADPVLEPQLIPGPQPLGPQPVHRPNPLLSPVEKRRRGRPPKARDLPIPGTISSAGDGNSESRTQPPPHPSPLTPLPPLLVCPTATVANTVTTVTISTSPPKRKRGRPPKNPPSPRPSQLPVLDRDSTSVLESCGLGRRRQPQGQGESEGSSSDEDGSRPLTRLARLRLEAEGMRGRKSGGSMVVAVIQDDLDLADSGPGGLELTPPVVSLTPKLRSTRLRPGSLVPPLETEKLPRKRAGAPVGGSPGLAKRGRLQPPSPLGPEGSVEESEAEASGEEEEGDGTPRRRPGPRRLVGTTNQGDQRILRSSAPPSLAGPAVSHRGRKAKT
UniProt P09132: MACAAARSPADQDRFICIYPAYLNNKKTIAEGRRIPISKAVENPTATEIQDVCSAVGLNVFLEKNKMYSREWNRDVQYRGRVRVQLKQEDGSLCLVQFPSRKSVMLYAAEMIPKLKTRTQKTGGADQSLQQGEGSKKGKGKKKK
UniProt Q5T280: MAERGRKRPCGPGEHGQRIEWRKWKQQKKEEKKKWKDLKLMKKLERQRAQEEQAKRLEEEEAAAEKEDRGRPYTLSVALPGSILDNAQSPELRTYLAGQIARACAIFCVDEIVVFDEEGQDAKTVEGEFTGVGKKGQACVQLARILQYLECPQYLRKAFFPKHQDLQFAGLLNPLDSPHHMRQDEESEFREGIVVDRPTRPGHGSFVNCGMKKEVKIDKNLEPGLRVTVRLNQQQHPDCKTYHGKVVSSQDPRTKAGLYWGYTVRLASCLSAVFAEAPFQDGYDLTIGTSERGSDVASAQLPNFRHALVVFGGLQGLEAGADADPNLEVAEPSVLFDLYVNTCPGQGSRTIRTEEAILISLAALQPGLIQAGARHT
UniProt Q00796: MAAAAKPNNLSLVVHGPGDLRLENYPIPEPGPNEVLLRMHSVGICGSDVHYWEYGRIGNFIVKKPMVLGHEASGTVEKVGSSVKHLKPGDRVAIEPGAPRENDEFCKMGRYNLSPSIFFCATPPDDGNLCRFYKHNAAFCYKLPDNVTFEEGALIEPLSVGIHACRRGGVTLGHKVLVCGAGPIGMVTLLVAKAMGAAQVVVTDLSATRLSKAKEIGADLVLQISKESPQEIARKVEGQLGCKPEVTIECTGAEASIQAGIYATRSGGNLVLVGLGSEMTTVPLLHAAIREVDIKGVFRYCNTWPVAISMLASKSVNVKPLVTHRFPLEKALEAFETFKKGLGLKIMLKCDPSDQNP
UniProt Q9UHB9: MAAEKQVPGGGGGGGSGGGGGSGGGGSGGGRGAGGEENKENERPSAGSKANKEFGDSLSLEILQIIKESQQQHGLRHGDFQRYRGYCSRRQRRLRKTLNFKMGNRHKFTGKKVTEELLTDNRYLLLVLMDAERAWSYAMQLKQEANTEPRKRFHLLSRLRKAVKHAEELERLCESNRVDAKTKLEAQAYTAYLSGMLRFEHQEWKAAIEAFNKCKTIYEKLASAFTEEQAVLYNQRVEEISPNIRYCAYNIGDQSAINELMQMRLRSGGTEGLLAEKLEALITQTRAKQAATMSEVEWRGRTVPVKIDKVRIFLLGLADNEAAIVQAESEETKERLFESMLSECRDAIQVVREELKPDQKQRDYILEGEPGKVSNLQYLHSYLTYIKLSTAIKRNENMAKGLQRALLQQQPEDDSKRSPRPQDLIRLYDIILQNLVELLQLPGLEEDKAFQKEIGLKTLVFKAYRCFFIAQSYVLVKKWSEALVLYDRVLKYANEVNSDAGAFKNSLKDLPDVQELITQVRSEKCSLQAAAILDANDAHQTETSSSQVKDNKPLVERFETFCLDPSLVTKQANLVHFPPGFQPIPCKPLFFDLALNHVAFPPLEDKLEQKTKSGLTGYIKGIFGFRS
UniProt O15270: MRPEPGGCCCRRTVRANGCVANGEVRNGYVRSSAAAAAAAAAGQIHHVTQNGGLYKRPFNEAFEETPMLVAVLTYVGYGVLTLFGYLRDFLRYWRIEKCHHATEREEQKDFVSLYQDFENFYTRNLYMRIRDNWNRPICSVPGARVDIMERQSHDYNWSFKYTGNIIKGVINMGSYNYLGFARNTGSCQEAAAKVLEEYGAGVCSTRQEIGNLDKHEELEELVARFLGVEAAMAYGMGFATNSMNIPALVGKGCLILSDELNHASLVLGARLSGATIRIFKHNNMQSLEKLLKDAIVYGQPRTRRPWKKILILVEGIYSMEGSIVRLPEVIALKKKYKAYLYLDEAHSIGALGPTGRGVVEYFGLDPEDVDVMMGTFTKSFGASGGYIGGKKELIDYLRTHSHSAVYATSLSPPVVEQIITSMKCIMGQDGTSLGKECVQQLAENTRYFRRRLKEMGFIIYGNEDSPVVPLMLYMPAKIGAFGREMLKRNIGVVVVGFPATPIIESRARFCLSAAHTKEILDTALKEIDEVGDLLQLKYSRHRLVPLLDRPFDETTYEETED
UniProt Q9BVQ7: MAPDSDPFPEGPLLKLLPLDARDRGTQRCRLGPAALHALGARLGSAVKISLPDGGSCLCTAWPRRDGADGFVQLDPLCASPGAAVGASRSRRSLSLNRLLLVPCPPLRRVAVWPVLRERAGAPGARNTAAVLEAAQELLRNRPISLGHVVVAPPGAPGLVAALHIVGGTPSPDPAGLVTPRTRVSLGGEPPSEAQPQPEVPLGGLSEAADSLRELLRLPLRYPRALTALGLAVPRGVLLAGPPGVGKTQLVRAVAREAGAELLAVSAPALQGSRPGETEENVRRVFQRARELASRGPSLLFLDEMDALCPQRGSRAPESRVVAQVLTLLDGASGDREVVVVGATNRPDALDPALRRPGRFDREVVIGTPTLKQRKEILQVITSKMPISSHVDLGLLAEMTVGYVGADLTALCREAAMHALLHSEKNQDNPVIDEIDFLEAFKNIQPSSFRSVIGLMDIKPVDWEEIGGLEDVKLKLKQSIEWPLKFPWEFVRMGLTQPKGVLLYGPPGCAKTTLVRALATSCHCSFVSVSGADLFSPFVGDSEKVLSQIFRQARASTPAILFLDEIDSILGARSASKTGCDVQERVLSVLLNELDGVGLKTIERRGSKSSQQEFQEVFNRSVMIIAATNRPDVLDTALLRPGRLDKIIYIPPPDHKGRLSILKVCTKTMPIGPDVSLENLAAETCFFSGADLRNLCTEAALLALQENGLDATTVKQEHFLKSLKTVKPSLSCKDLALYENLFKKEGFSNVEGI
UniProt Q86XZ4: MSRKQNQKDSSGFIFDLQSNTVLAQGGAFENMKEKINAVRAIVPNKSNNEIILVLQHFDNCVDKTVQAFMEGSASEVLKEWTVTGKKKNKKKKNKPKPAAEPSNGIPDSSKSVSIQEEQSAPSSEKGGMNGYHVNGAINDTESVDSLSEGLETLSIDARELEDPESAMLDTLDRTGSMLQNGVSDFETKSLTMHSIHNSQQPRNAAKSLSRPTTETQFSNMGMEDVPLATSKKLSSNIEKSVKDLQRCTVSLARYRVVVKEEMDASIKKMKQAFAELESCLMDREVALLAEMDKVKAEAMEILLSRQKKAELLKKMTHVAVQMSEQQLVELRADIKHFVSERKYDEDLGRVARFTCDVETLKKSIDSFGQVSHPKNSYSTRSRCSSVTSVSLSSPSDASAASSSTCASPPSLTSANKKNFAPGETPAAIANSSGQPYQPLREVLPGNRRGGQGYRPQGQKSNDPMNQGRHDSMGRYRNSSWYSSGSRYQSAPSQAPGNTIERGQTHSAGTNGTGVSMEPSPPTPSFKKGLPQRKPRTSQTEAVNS

Compound: Cc1cc(ccc1-c1ccccc1)C(=O)N1CCCN(CC1)C(=O)CCl [compound 10]
Assay: probe-labelled cysteine peptide fold change vs DMSO (competition) (log2 fold change); higher = less target engagement (more negative = stronger competition)
Conditions: 50 µM; THP-1; incubation time: 4 h
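Note: competitive profiling in live THP-1 cells: cysteine peptides tagged with an iodoacetamide desthiobiotin (IA-DTB) probe, intensity after compound treatment relative to DMSO-treated cells.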

Row | Target | probe-labelled cysteine peptide fold change
1 | SRCAP_Q6ZRS2_1993_FIFVMPPVEAPPPSLHACHPPPWLAPR (UniProt Q6ZRS2) | 0.0126
2 | SPG11_Q96JI7_1890_LLDDGCVHEASR (UniProt Q96JI7) | -0.371
3 | SRP19_P09132_17_FICIYPAYLNNKK (UniProt P09132) | -0.0559
4 | SRPRA_P08240_363_NVAADIAVQLCESVANKLEGK (UniProt P08240) | -0.248
5 | SOGA1_O94964_1113_EITNCVR (UniProt O94964) | -0.447
6 | SPOUT1_Q5T280_151_ILQYLECPQYLR (UniProt Q5T280) | 0.304
7 | SP100_P23497_248_AEPTESCEQIAVQVNNGDAGR (UniProt P23497) | -0.26
8 | SORL1_Q92673_1158_CDLEDDCGDNSDESHCEMHQCR (UniProt Q92673) | -0.346
9 | SORD_Q00796_106_ENDEFCK (UniProt Q00796) | -0.0861
10 | SNRPF_P62306_66_CNNVLYIR (UniProt P62306) | 0.0292
11 | SPTAN1_Q13813_956_EQAQSCR (UniProt Q13813) | -0.0854
12 | SPRYD7_Q5W111_150_NMHCPASGIR (UniProt Q5W111) | 0.0102
13 | SPOUT1_Q5T280_139_KGQACVQLAR (UniProt Q5T280) | -0.132
14 | SOGA1_O94964_984_DCNHLGALACQDPPGR (UniProt O94964) | -0.193
15 | SORD_Q00796_120_YNLSPSIFFCATPPDDGNLCR (UniProt Q00796) | 0.316
16 | SPINT1_O43278_424_FTYGGCYGNK (UniProt O43278) | -0.709
17 | SNW1_Q13573_250_IPPCISNWK (UniProt Q13573) | -0.565
18 | SPTAN1_Q13813_1444_MMLDQCLELQLFHR (UniProt Q13813) | 0.12
19 | SORL1_Q92673_1376_CENGHCIPNR (UniProt Q92673) | -5.81e-05
20 | SPATS2L_Q9NUQ6_351_AQIMLCGEITHPK (UniProt Q9NUQ6) | 0.074

Row | Target | probe-labelled cysteine peptide fold change
21 | SRP68_Q9UHB9_586_QANLVHFPPGFQPIPCK (UniProt Q9UHB9) | 0.0253
22 | SRP19_P09132_94_QEDGSLCLVQFPSRK (UniProt P09132) | -0.0819
23 | SQSTM1_Q13501_113_DHRPPCAQEAPR (UniProt Q13501) | -0.536
24 | SPTLC2_O15270_139_IRDNWNRPICSVPGAR (UniProt O15270) | 0.0428
25 | SRM_P19623_89_DEFSYQEMIANLPLCSHPNPR (UniProt P19623) | 0.233
26 | SRGN_P10124_40+49_CNPDSNSANCLEEK (UniProt P10124) | -0.569
27 | SP140_Q13342_686_SQNNSSVDPCMR (UniProt Q13342) | -0.188
28 | SRP68_Q9UHB9_173_LCESNR (UniProt Q9UHB9) | 0.506
29 | SRCAP_Q6ZRS2_141_GHWDYLCEEMQWLSADFAQER (UniProt Q6ZRS2) | 0.529
30 | SPTAN1_Q13813_1454_DCEQAENWMAAR (UniProt Q13813) | -0.0591
31 | SPRED2_Q7Z698_73_LVVLECYVR (UniProt Q7Z698) | 0.0489
32 | SRP54_P61011_136_TCLICADTFR (UniProt P61011) | -0.0655
33 | SPAG5_Q96R06_704_VLEQVSAQLEECK (UniProt Q96R06) | 0.178
34 | SPATA5L1_Q9BVQ7_78_RDGADGFVQLDPLCASPGAAVGASR (UniProt Q9BVQ7) | 0.473
35 | SPATS2_Q86XZ4_280_QAFAELESCLMDR (UniProt Q86XZ4) | 0.363
36 | SORD_Q00796_45_MHSVGICGSDVHYWEYGR (UniProt Q00796) | -0.769
37 | SP3_Q02447_602_VACTCPNCK (UniProt Q02447) | 0.393
38 | SP100_P23497_266+270_EMPCPLPCDEESPEAELHNHGIQINSCSVR (UniProt P23497) | -1.25
39 | SPATA20_Q8TB22_671_CVCLLTAFSER (UniProt Q8TB22) | -0.181
40 | SPATA5_Q8NB90_459_HPSIIFIDELDALCPK (UniProt Q8NB90) | -0.0517

Reformatted as tab-separated lines: part of the list above
Row	Target	probe-labelled cysteine peptide fold change
34	SPATA5L1_Q9BVQ7_78_RDGADGFVQLDPLCASPGAAVGASR (UniProt Q9BVQ7)	0.473
35	SPATS2_Q86XZ4_280_QAFAELESCLMDR (UniProt Q86XZ4)	0.363
